According to PubChem BioAssay AID328 (DTP/NCI, 2004):
The list is a part of this screen's results and no random one: it is rich in T/C values a quarter to a half above the control, in often repeated tests (any T/C) and in doses without a T/C. Other doses and runs of a compound stand elsewhere. T/C is the treated group as % of the vehicle group. Some doses have a count of surviving animals in place of a T/C: the source files T/C as zero there, which appears to mark a toxic dose or a test without result, not a measured value. Some doses without a T/C left all or most animals alive at the check, yet need not have been tolerated: the source hardly ever lists a survival T/C far under the control, and the zero likely stands for such cases as well. Counts of survivors are from the toxicity check (mostly the fifth day) where no day follows; animals may have died later. Schedule codes are those of the source, read here as Q, the interval in days (D) or hours (H), X, the number of doses. Some doses were run more than once; their values stand side by side, smallest first. Where survival is the endpoint, the PubChem record calls one and a half times the control and up active, and a quarter to a half above the control has no call in these data; cut-offs in other NCI protocols can differ. Some T/C values are followed by the survivors on the day toxicity was checked, most often the fifth; without a count, all were alive then. Marks such as (2×) stand for listed records that agree.

Test system: BDF1 mice, P388 leukemia ip, median survival T/C
Assay: NCI In Vivo Anticancer Drug Screen. Data for tumor model P388 Leukemia (intraperitoneal) in B6D2F1 (BDF1) mice
Conditions: T/C endpoint: median survival time, higher T/C = longer survival
Method in brief: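 Mice carrying the transplantable tumour receive compound or vehicle. Survival is followed in each arm, and the treated measure is divided by the vehicle measure.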

[1] = dose: 50.0 mg/kg/injection, schedule: Q01DX005 (ip), vehicle: Klucel (hydroxypropylcellulose) (HPC)
[2] = dose: 50.0 mg/kg/injection, schedule: Q01DX009 (ip), vehicle: Klucel (hydroxypropylcellulose) (HPC)
[3] = dose: 50.0 mg/kg/injection, schedule: Q04DX002 (ip), vehicle: Klucel (hydroxypropylcellulose) (HPC)
[4] = dose: 50.0 mg/kg/injection, schedule: Q04DX003 (ip), vehicle: Klucel (hydroxypropylcellulose) (HPC)
[5] = dose: 100.0 mg/kg/injection, schedule: Q01DX001 (ip), vehicle: Klucel (hydroxypropylcellulose) (HPC)
[6] = dose: 100.0 mg/kg/injection, schedule: Q01DX009 (ip), vehicle: Klucel (hydroxypropylcellulose) (HPC)
[7] = dose: 100.0 mg/kg/injection, schedule: Q04DX002 (ip), vehicle: Klucel (hydroxypropylcellulose) (HPC)
[8] = dose: 100.0 mg/kg/injection, schedule: Q04DX003 (ip), vehicle: Klucel (hydroxypropylcellulose) (HPC)
[9] = dose: 200.0 mg/kg/injection, schedule: Q01DX001 (ip), vehicle: Klucel (hydroxypropylcellulose) (HPC)
[10] = dose: 200.0 mg/kg/injection, schedule: Q01DX005 (ip), vehicle: Klucel (hydroxypropylcellulose) (HPC)
[11] = dose: 200.0 mg/kg/injection, schedule: Q01DX009 (ip), vehicle: Klucel (hydroxypropylcellulose) (HPC)
[12] = dose: 200.0 mg/kg/injection, schedule: Q04DX002 (ip), vehicle: Klucel (hydroxypropylcellulose) (HPC)
[13] = dose: 200.0 mg/kg/injection, schedule: Q04DX003 (ip), vehicle: Klucel (hydroxypropylcellulose) (HPC)
[14] = dose: 400.0 mg/kg/injection, schedule: Q01DX001 (ip), vehicle: Klucel (hydroxypropylcellulose) (HPC)
[15] = dose: 400.0 mg/kg/injection, schedule: Q01DX005 (ip), vehicle: Klucel (hydroxypropylcellulose) (HPC)
[16] = dose: 400.0 mg/kg/injection, schedule: Q01DX009 (ip), vehicle: Klucel (hydroxypropylcellulose) (HPC)
[17] = dose: 400.0 mg/kg/injection, schedule: Q04DX002 (ip), vehicle: Klucel (hydroxypropylcellulose) (HPC)
[18] = dose: 400.0 mg/kg/injection, schedule: Q04DX003 (ip), vehicle: Klucel (hydroxypropylcellulose) (HPC)
[19] = dose: 200.0 mg/kg/injection, schedule: Q01DX009 (ip), vehicle: saline with Tween-80
[20] = dose: 400.0 mg/kg/injection, schedule: Q04DX003 (ip), vehicle: water
[21] = dose: 50.0 mg/kg/injection, schedule: Q01DX009 (ip), vehicle: saline with Tween-80

C[C@]12C=CC(=O)C=C1CC[C@@H]1[C@@H]2C(=O)C[C@@]2(C)[C@H]1CC[C@]2(O)C(=O)CO
survivor count (dose: 3.12 mg/kg/injection, schedule: Q01DX009 (ip), vehicle: carboxymethylcellulose (CMC)): 10 of 10 | survivor count (dose: 25.0 mg/kg/injection, schedule: Q01DX009 (ip), vehicle: carboxymethylcellulose (CMC)): 8 of 10 and 10 of 10 | T/C (dose: 50.0 mg/kg/injection, schedule: Q01DX001 (ip), vehicle: Klucel (hydroxypropylcellulose) (HPC)): 87, 89, 91, 94, 95 (2×), 96, 97, 98, 99 (2×), 100 (4×), 102 (3×), 103 (2×), 105, 106, 107 (2×), 108, 111, 116, 125 % of control | T/C [1]: 86, 87, 88 (2×), 90, 94 [2 of 3 alive], 97, 99, 101, 102, 103, 105, 106, 107, 108 (2×), 110, 111 (3×), 112, 113 (2×), 114, 115, 116, 117 (2×), 118, 119, 125, 126, 128, 137 % of control | survivor count [1]: 6 of 6 | T/C [2]: 86 (2×), 88, 90, 92, 93 (2×), 94 (2×), 95, 97, 98, 100, 101, 101 [5 of 6 alive], 103 (3×), 104, 106, 107, 108, 109, 110 (3×), 113, 115 (2×), 119, 140 % of control | survivor count [2]: 2 of 3 and 3 of 3 | T/C [3]: 94, 100 (4×), 101, 103 (3×), 104, 105 (2×), 106 (2×), 107, 108, 109 (2×), 110, 111, 112, 113, 115 (2×), 115 [2 of 3 alive], 116, 119, 120, 121, 122 (2×), 130 % of control | survivor count [3]: 3 of 3 and 6 of 6 | T/C [4]: 87, 91, 94 (2×), 95, 96, 98, 100, 103 (3×), 105, 106, 107 (3×), 108, 110 (3×), 111 (3×), 112 (2×), 114 (2×), 115 (2×), 117 (2×), 118, 122, 125 % of control | survivor count [4]: 3 of 3 and 6 of 6 | T/C [5]: 88, 90, 94 (2×), 95 (2×), 96 (2×), 98, 100 (2×), 101, 103, 104, 105 (2×), 106, 107, 110, 111, 113, 116, 117, 118, 119, 122, 123 % of control | survivor count [5]: 3 of 6 | T/C (dose: 100.0 mg/kg/injection, schedule: Q01DX005 (ip), vehicle: Klucel (hydroxypropylcellulose) (HPC)): 90 [5 of 6 alive], 94, 94 [5 of 6 alive], 97 [2 of 3 alive], 99, 100 (3×), 102, 103 (3×), 106 (2×), 106 [2 of 3 alive], 107, 108, 109, 110 (3×), 111, 112, 113 (2×), 114 (3×), 117, 119, 120, 120 [5 of 6 alive], 123, 125, 146 % of control | T/C [6]: 86 (2×), 87, 88 (2×), 94, 96 [4 of 6 alive], 98, 100, 101 (3×), 102 (2×), 103, 106 (3×), 108, 109, 110 (3×), 113 (2×), 116, 119 % of control | survivor count [6]: 3 of 3 and 6 of 6 | T/C [7]: 88, 90, 99, 100 (2×), 102 (3×), 103 (2×), 105 (2×), 106 (3×), 107, 109 (2×), 111 [5 of 6 alive], 112 (2×), 114, 115 (3×), 116 (3×), 120 (4×), 123 % of control | survivor count [7]: 3 of 3 | T/C [8]: 91, 94, 96, 98 (2×), 99, 101, 102, 103 (2×), 104 (2×), 105, 106, 108, 110, 111 (4×), 113, 115 (2×), 116 (2×), 117 (2×), 118 (2×), 120 (2×), 122, 125, 127 % of control | survivor count [8]: 3 of 3 and 6 of 6 | T/C [9]: 90, 95, 97, 98, 99, 100, 101 (2×), 102, 103 (2×), 104 (2×), 106 (4×), 108, 111 (2×), 113 (2×), 116, 117, 119, 121, 122 % of control | survivor count [9]: 3 of 3 | T/C [10]: 89 [5 of 6 alive], 91, 95, 97, 100 (2×), 101, 102, 103 (3×), 104, 105 (2×), 106, 107 (4×), 108, 108 [2 of 3 alive], 110, 111 (2×), 112, 116, 116 [5 of 6 alive], 117 (2×), 119, 121, 121 % of control [2 of 3 alive] | survivor count [10]: 3 of 6, 2 of 3, 6 of 6 | T/C [11]: 86, 87, 88, 88 [5 of 6 alive], 89 [5 of 6 alive], 92 (2×), 93 (2×), 94, 95, 98, 100, 103 (2×), 104, 106, 107, 108 (2×), 110, 112, 120, 122, 123 % of control | survivor count [11]: 5 of 6, 3 of 3, 6 of 6 | T/C [12]: 95, 97, 100 (3×), 101 (2×), 102 (2×), 103, 104, 105, 106, 107 (2×), 107 [5 of 6 alive], 109, 110 (2×), 111, 111 [5 of 6 alive], 112 (2×), 114, 115 (2×), 116, 118, 119, 120, 122, 123, 132 % of control | survivor count [12]: 2 of 3 | T/C [13]: 88 (2×), 95, 96 (2×), 98, 99, 101, 102, 104 (2×), 105 (2×), 106, 108, 109 (4×), 110, 111 (4×), 112, 114 (2×), 116 (2×), 118, 120, 125, 126, 140 % of control | survivor count [13]: 3 of 3 | T/C [14]: 86, 99, 101 (3×), 102 (2×), 103, 104 (3×), 106, 108 (2×), 109 (2×), 110 (3×), 111 (2×), 111 [5 of 6 alive], 112, 115, 117 (2×), 126 % of control | survivor count [14]: 6 of 6 | T/C [15]: 88, 88 [5 of 6 alive], 91 (2×), 92, 93, 96, 97, 100 (2×), 100 [5 of 6 alive], 101 (3×), 103 (2×), 105, 107, 108, 109 (3×), 110, 117, 122, 128 % of control | survivor count [15]: 3 of 6, 2 of 3, 5 of 6, 3 of 3, 6 of 6 | T/C [16]: 86 (2×), 90, 92, 93, 94, 95, 97 (4×), 98, 102 (2×), 106, 108 (2×), 114 % of control | survivor count [16]: 2 of 6, 5 of 6, 2 of 2, 3 of 3, 6 of 6 | T/C [17]: 95, 97 (2×), 99, 100, 101 (2×), 102 (3×), 103 (2×), 104 (2×), 106 (2×), 107 (2×), 109 (2×), 110, 111, 112, 113, 114, 115, 116, 117 (3×), 120, 125, 130 % of control | survivor count [17]: 3 of 3 | T/C [18]: 94, 96, 99, 100, 101 (2×), 102 (2×), 103 (3×), 105 (3×), 106 (2×), 108, 109, 110 (2×), 111, 112 (2×), 113, 114 (3×), 115, 117, 119, 120, 127, 130 % of control | survivor count [18]: 3 of 3 and 6 of 6

c1cc[c]([Sn]([O][Sn]([c]2ccccc2)([c]2ccccc2)[c]2ccccc2)([c]2ccccc2)[c]2ccccc2)cc1
survivor count (dose: 50.0 mg/kg/injection, schedule: Q04DX003 (ip), vehicle: saline with Tween-80): 4 of 6 | survivor count (dose: 100.0 mg/kg/injection, schedule: Q04DX003 (ip), vehicle: saline with Tween-80): 0 of 6

O=C1CN(N2C(=O)CSC2C23CC4CC(CC(C4)C2)C3)C(=O)CN1c1ccccc1 (stereo not drawn)
survivor count [19]: 6 of 6

C/C(CC(=O)O)=C(\C)C(=O)O
survivor count (dose: 200.0 mg/kg/injection, schedule: Q04DX003 (ip), vehicle: water): 4 of 6 | survivor count [20]: 2 of 6

O=C(Nc1ccccc1O)/C(Cl)=C/Cl
survivor count (dose: 25.0 mg/kg/injection, schedule: Q01DX009 (ip), vehicle: saline with Tween-80): 6 of 6 | T/C [21]: 132 % of control | survivor count [21]: 6 of 6 | T/C (dose: 75.0 mg/kg/injection, schedule: Q01DX009 (ip), vehicle: saline with Tween-80): 133 % of control | survivor count (dose: 100.0 mg/kg/injection, schedule: Q01DX009 (ip), vehicle: saline with Tween-80): 5 of 6

COc1ccc2[nH]c3c(c2c1)CCNC3CC(C)CCC=C(C)C (stereo not drawn)
survivor count [19]: 1 of 6

CN(CCO)C1=C(N2CC2)C(=O)C(N(C)CCO)=C(N2CC2)C1=O
T/C (dose: 100.0 micrograms/kg/injection, schedule: Q01DX009 (ip), vehicle: saline): 131 % of control

O=Cc1ccc(/C=C2\NC(=O)NC2=O)cc1
T/C [20]: 130 % of control

CC1OC(OC2C(O)CC(OC3C(O)CC(OC4CCC5(C)C(CCC6C5CCC5(C)C(C7=CC(=O)OC7)CCC65O)C4)OC3C)OC2C)CC(O)C1O (stereo not drawn)
survivor count (dose: 5.0 mg/kg/injection, schedule: Q01DX010 (ip), vehicle: saline): 1 of 6 | survivor count (dose: 10.0 mg/kg/injection, schedule: Q01DX010 (ip), vehicle: saline): 1 of 6 | survivor count (dose: 20.0 mg/kg/injection, schedule: Q01DX010 (ip), vehicle: saline): 2 of 6 | survivor count (dose: 40.0 mg/kg/injection, schedule: Q01DX010 (ip), vehicle: saline): 0 of 6

C[n+]1c(/C=N/NC(N)=S)ccc2ccccc21
T/C (dose: 12.5 mg/kg/injection, schedule: Q01DX009 (ip), vehicle: saline with Tween-80): 141 % of control
